In PubChem BioAssay AID1487 (National Center for Advancing Translational Sciences (NCATS), 2009) one finds AC50 data, which are given here for 52 molecules.

The assay can be described thus: qHTS Assay for Modulators of Lamin A Splicing. The note with it: HeLa LMNA splicing GFP/RFP minigene ratio, 48 h. The procedure, abridged: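 S3 HeLa cells stably expressing lamin A-EGFP splicing minigene plus DsRed2, 600 cells/well, 48 h compound exposure at 37C. Laser-scanning cytometry; analysed as GFP (500-530 nm)/RFP (575-640 nm) total intensity ratio; 0.5% DMSO vehicle.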

Where [1] appears, read: measured here: GFP splicing reporter channel.
[2] abbreviates: measured here: RFP viability control channel.

SMILES strings stand for the structures. The list shows a part of the results. These are further read-outs of the screen, such as a control signal, another cell line or another target. No call is given for them. Compounds called inactive in the main read-out are mostly missing here. Words in brackets tell the shape of the fitted curve; partial curves, single points and poor fits give uncertain potencies.

Take `O=C(N/N=C/C(Br)=C\c1ccccc1)c1ccc2nc[nH]c2c1`: under setting [1], the AC50 was 15.8 µM [falling, partial curve, poor fit].
Take `CC(C)NC(=O)COc1ccc(/C=N/NS(=O)(=O)c2ccccc2)cc1`: the AC50 under setting [1] is 2.51 µM [falling, partial curve].
Regarding `O=C1c2ccccc2NC(c2ccco2)N1NS(=O)(=O)c1ccccc1` (stereo not given), the AC50 by setting is: under setting [1], 0.794 µM [falling, full curve, poor fit]; under setting [2], 0.794 µM [falling, full curve, poor fit].
For `CCC(=O)c1ccc(Oc2ccc(C(=O)c3ccc(C)cc3)cc2[N+](=O)[O-])cc1`, the AC50 under setting [2] is 3.55 µM [rising, partial curve, poor fit].
`CCOC(=O)c1c(C)[nH]c(C(=O)OCC(=O)N2c3ccccc3CC2C)c1C` (stereo not given): the AC50 under setting [2] is 22.4 µM [rising, partial curve].
For the molecule `CC1CCN(c2oc(-c3ccccc3Cl)nc2C#N)CC1`, the AC50 by setting is: under setting [1], 14.1 µM [rising, single point]; under setting [2], 15.8 µM [rising, partial curve].
Take `O=C(NC1CCCC1)c1ccc2c(=O)n(Cc3ccccc3)c(SCc3ccccc3F)nc2c1`: the AC50 under setting [1] is 0.224 µM [falling, full curve, poor fit].
Consider `COCCn1c(N)c(C#N)c2nc3ccccc3nc21`, for which the concentration at half-maximal activity (AC50) was 2.51 µM [falling, single point] under setting [1] and 2.51 µM [falling, single point] under setting [2].
As for `CCn1ncc(Br)c1C(=O)Nc1ccn(C23CC4CC(CC(C4)C2)C3)n1`, under setting [2], the AC50 was 22.4 µM [rising, single point].
Take `CCN(CC)c1ccc(-c2nc3cnccc3n2C)cc1`: the AC50 was 11.2 µM [rising, single point] under setting [1] and 11.2 µM [rising, single point] under setting [2].
With `CCOC(=O)c1c(NC(=O)c2ccc(C)cc2)sc2c1CC(C)(C)OC2`, the half-maximal activity concentration (AC50) was 22.4 µM [rising, single point] under setting [1] and 31.6 µM [rising, single point] under setting [2].
With `CN1CCN(CCC=C2c3ccccc3Sc3ccc(S(=O)(=O)N(C)C)cc32)CC1`, under setting [2], the concentration at half-maximal activity (AC50) was 0.398 µM [falling, single point].
Take `O=C(c1ccccc1Br)N1CCCC(c2nc(-c3cccs3)no2)C1` (stereo not given): the AC50 under setting [2] was 17.8 µM [rising, single point].
As to `Cc1cc(C)c2cc(CN(CC3CCCO3)C(=S)NCc3ccco3)c(=O)[nH]c2c1` (stereo not given), under setting [1], the AC50 was 6.31 µM [falling, full curve, poor fit].
For `O/N=C(\c1ccc(Cl)cc1Cl)c1ncc(C(F)(F)F)cc1Cl`, the AC50 under setting [2] was 31.6 µM [rising, single point].
As for `COc1ccc(COc2ccsc2C(=O)Nc2ccc(Cl)c(Cl)c2)cc1`, the AC50 was 22.4 µM [falling, single point] under setting [1] and 17.8 µM [falling, partial curve] under setting [2].
Turning to `Cc1ccc(S(=O)(=O)NCCC(=O)OCC(=O)Nc2cccc(S(=O)(=O)NC3=NCCCCC3)c2)cc1`, under setting [1], the AC50 is 0.01 µM [rising, full curve, poor fit].
As to `O=C(O)c1cc(S(=O)(=O)N2CCCCCC2)c(Cl)cc1Cl`, the AC50 reads like this: under setting [1], 14.1 µM [rising, partial curve]; under setting [2], 3.98 µM [rising, partial curve].
As for `Cc1cc2nc(SCC(=O)N(C)C)c3c(c2cc1C)CCCC3`, the half-maximal activity concentration (AC50) under setting [1] was 14.1 µM [falling, partial curve, poor fit] and the half-maximal activity concentration (AC50) under setting [2] was 11.2 µM [falling, partial curve, poor fit].
`O=C(COc1ccc(Cc2ccccc2)cc1)c1ccc(F)cc1`: the concentration at half-maximal activity (AC50) under setting [2] is 31.6 µM [rising, single point].
As for `Cc1ccccc1N(C)S(=O)(=O)c1nnc(NC(=O)c2ccco2)s1`, the concentration at half-maximal activity (AC50) was 7.08 µM [rising, full curve, poor fit] under setting [1] and 5.01 µM [rising, partial curve] under setting [2].
As to `CCOC(=O)c1cc(-c2ccc(OC)cc2)n(CCC(=O)NCCc2ccccc2)c1C`, under setting [2], the concentration at half-maximal activity (AC50) was 6.31 µM [rising, full curve, poor fit].
With `COc1cccc(C(=O)NCCc2csc3nc(-c4ccccc4F)nn23)c1OC`, under setting [1], the AC50 is 6.31 µM [falling, partial curve, poor fit].
Consider `CCCCc1ccc(-n2c(Cc3cccs3)n[nH]c2=S)cc1`, for which the AC50 under setting [2] is 11.2 µM [rising, partial curve, poor fit].
Take `O=C1C=C(NCc2ccc(Cl)c(Cl)c2)C2(CCCCC2)O1`: the AC50 reads like this: under setting [1], 12.6 µM [rising, single point]; under setting [2], 14.1 µM [rising, partial curve].
On to `CCOC(=O)Cc1csc(/N=C/c2c(O)n(-c3ccccc3C(F)(F)F)c(=O)c3ccccc23)n1`, for which, under setting [2], the AC50 is 14.1 µM [rising, single point].
As for `Cc1ccc(CNC(=O)Cn2c(SCC(=O)Nc3ccc(F)cc3)nc3ccccc32)cc1`, the AC50 by setting is: under setting [1], 22.4 µM [falling, partial curve, poor fit]; under setting [2], 28.2 µM [falling, partial curve, poor fit].
As to `CC1(C)CC(=O)C(C=Nc2cc(C(=O)c3ccccc3)ccc2N)=C(O)C1`, the AC50 under setting [2] was 0.0141 µM [falling, full curve, poor fit].
Take `CCCCn1c(CN2CCN(c3cccc(Cl)c3)CC2)nc2c1c(=O)n(C)c(=O)n2C`: the half-maximal activity concentration (AC50) under setting [2] is 2.82 µM [rising, single point].
`O=C(Nc1nnc(SCc2ccc(Cl)cc2)s1)c1cnccn1`: the AC50 is, setting by setting: under setting [1], 14.1 µM [rising, partial curve]; under setting [2], 15.8 µM [rising, partial curve].
For `CCC(Sc1nc(C)cc(=O)[nH]1)C(=O)Nc1nc(-c2ccccc2)cs1` (stereo not given), the half-maximal activity concentration (AC50) under setting [1] is 12.6 µM [rising, partial curve, poor fit] and the concentration at half-maximal activity (AC50) under setting [2] was 15.8 µM [rising, partial curve].
As for `CC1(C)Cc2c(C#N)c(N3CCN(C(=O)c4ccccc4)CC3)nc(Cc3ccccc3)c2CO1`, the AC50 by setting is: under setting [1], 11.2 µM [rising, single point]; under setting [2], 12.6 µM [rising, single point].
`Cc1cccc(OC(=O)NCCOC(=O)N(O)c2ccc(Cl)cc2)c1`: the half-maximal activity concentration (AC50) under setting [2] was 35.5 µM [rising, single point].
Turning to `Cc1ccc(CNC(=O)C(C)n2c(=O)cc(C(F)(F)F)c3c(C)nn(C)c32)cc1` (stereo not given), the AC50 under setting [1] is 39.8 µM [falling, partial curve, poor fit] and the concentration at half-maximal activity (AC50) under setting [2] is 0.562 µM [falling, full curve, poor fit].
As for `Cc1[nH]c2ccccc2c1/C=N/NC(=O)c1cccc(S(=O)(=O)Nc2cccc(C(F)(F)F)c2)c1`, the AC50 is, setting by setting: under setting [1], 35.5 µM [falling, partial curve]; under setting [2], 35.5 µM [falling, single point].
In the case of `CCn1c(SCC(=O)Nc2oc(-c3ccccc3)c(-c3ccccc3)c2C#N)nnc1-c1cc(OC)cc(OC)c1`, under setting [1], the AC50 is 10 µM [rising, partial curve, poor fit].
For the molecule `NC1=NC(c2cn(-c3ccccc3)nc2-c2cccs2)n2c(nc3ccccc32)N1` (stereo not given), the AC50 under setting [2] was 31.6 µM [rising, single point].
`CCOc1ccc(/C=N/NC(=O)c2c(C)n(C)c3ccc(OC)cc23)cc1`: the AC50 under setting [2] was 11.2 µM [rising, partial curve].
Consider `Cc1cc(-c2c(C)[nH]n(-c3ccccc3)c2=O)n[nH]1`, for which the AC50 is 4.47 µM [falling, full curve] under setting [1] and 2.51 µM [falling, full curve] under setting [2].
As to `CCOc1ccc(C2C(=O)N(C3CCCCCC3)CC(=O)N2Cc2ccccc2)cc1OC` (stereo not given), the AC50 under setting [1] is 22.4 µM [rising, single point] and the concentration at half-maximal activity (AC50) under setting [2] was 20 µM [rising, partial curve, poor fit].
As to `Cc1nn(CCc2nn[nH]n2)c2nc(-c3ccc(Br)cc3)cc(C(F)(F)F)c12`, the AC50 under setting [1] was 8.91 µM [falling, partial curve, poor fit].
Consider `COc1cc(C#N)c(NC(=O)CN2CCN(CCO)CC2)cc1OC`, for which the AC50 reads like this: under setting [1], 1 µM [falling, full curve]; under setting [2], 0.0178 µM [falling, full curve, poor fit].
`O=C(Nc1ccc(Oc2c(F)c(F)c(F)c(F)c2F)cc1)OC1CCN2Cc3ccccc3N=C12` (stereo not given): the AC50 was 7.94 µM [falling, partial curve] under setting [1] and 8.91 µM [falling, partial curve] under setting [2].
Consider `O=C(CSc1ccccc1Cl)N1CCC(c2nc3ccccc3s2)CC1`, for which the half-maximal activity concentration (AC50) is 11.2 µM [rising, partial curve] under setting [1] and 12.6 µM [rising, partial curve] under setting [2].
Take `C[C@H](NCCc1ccc(O)cc1)[C@@H](O)c1ccc(O)cc1`: the half-maximal activity concentration (AC50) is 12.6 µM [falling, partial curve, poor fit] under setting [1] and 14.1 µM [falling, single point] under setting [2].
`NC(=Nc1ccccc1)NC(=O)c1nc(Cl)c(N)nc1N`: the concentration at half-maximal activity (AC50) under setting [1] was 8.91 µM [rising, partial curve].
As to `CCOC(=O)c1cccc(NC(=O)c2ncoc2-c2ccco2)c1`, the concentration at half-maximal activity (AC50) under setting [1] was 0.0316 µM [rising, full curve, poor fit].
With `COc1ccc(/C=C/C(=O)OCC(=O)c2c(C)[nH]c3ccccc23)cc1OC`, the AC50 under setting [2] was 11.2 µM [rising, partial curve].
Still for that read-out and setting: to `CC(=O)N1CCN(c2ccc(Oc3nnnn3-c3ccccc3)cc2)CC1` belongs 15.8 µM [rising, single point].
Regarding `O=C(CSc1n[nH]c(-c2ccccc2Cl)n1)NCCCc1ccccc1`, the concentration at half-maximal activity (AC50) under setting [1] was 1.58 µM [rising, partial curve].
Turning to `Fc1ccc(/C=C2\CCCC3=C2Nc2ncnn2C3c2ccc(F)cc2)cc1` (stereo not given), under setting [2], the half-maximal activity concentration (AC50) was 35.5 µM [falling, single point].
For the molecule `C/C(=N\Nc1ccc(S(=O)(=O)N2CCOCC2)cc1[N+](=O)[O-])C(C)C`, the half-maximal activity concentration (AC50) by setting is: under setting [1], 0.0316 µM [rising, full curve, poor fit]; under setting [2], 12.6 µM [rising, partial curve].

The term AC50 denotes the concentration giving half of the maximal activity seen.
